From patent publication US20020061509A1, “Screening assay for the identification of agents which alter expression of PTH-rP” (Osteo Screen, priority 1996, published 2002)
For at least one compound, name, drawing or mass did not settle the structure.

Test system: MDA-MB-231 cells (human breast cell carcinoma)
Assay: Osteolytic bone metastases study: nude mice inoculated with MDA-MB-231 cells into the left ventricle
Type: in vivo, BALB/c nude mice
Settings: vs vehicle alone
Description: Compounds which are identified as regulating PTH-rP production were initially tested for their capacity to inhibit bone metastases in vivo by injecting tumor cells into nude mice and treating the mice with the potential inhibitory compounds. Specifically, compounds to be tested were injected into the subcutaneous tissue, intramuscularly, or intravenously into nude mice which were also inoculated with the human cancer cells which produce PTH-rP. The effects on the capacity of the tumor cells to cause osteolytic bone lesions are then assessed over 2-4 weeks.
The tumor, named MDA-MB-231, is a human breast cell carcinoma.
The MDA-MB-231 cells are grown in culture in T75 flasks in D-minimal essential medium (DMEM, Hazelton Biologics Inc., Lenexa, Kans.) with 10% fetal calf serum and passaged twice a week. To prepare for mouse inoculation, cells were trypsinized, washed twice with phosphate buffered saline (PBS) and resuspended in PBS to a final concentration of 10^5 cells/100 μl. The suspended cells are then inoculated into the left ventricle of the heart.
All animal studies are conducted in accordance with the NIH Guide for the Care and Use of Laboratory Animals. Female BALB/c nude mice (Harlen), 4-6 weeks of age, are housed in a laminar flow isolator hood with a 12-hour-light/12-hour-dark cycle. Water, supplemented with multivitamins (Lymphomed, Melrose Park, Ill.) and autoclaved mouse chow (Ralston-Purina, St. Louis, Mo.) were provided ad libitum.
Weekly, the mice are weighed and whole blood samples for ionized calcium (Ca^2+) determination are obtained by retro-orbital puncture under anesthesia and measured using a Ciba Coming 634 ISE Ca^++/pH analyzer.
The number of osteolytic bone metastases is determined on radiographs as described by Nakai (1992). Weekly, animals are anesthetized deeply, laid down in a prone position against the film (22×27 cm X-O Mat AR, Kodak, Rochester, N.Y.) and exposed with an x-ray at 35 KVP for 6 seconds using a Faxitron Radiographic Inspection Unit (Model 8050-020, Field Emission Corporation, Inc.). Films are developed using a RP X-O Mat processor (Model M6B, Kodak). The area of osteolytic bone metastases is calculated using a computerized image analysis system in which examination of osteolytic lesions from radiographs is achieved using a fluorescent light box (Kaiser, Germany) and Macro TV Zoom lens 18-108 mm f2,5 (Olympus, Japan) attached to a color video camera (Model DXC- 1 51 Sony, Japan). Video images are captured using a frame grabber board (Targa+, Truevision, Inc., USA) with an IBM compatible 486/33 Mhz computer system. Quantitation of lesion area is performed using image analysis software (Java, Jandel Video Analysis, Jandel Scientific, Calif.). […]

C[C@@H]1C[C@H]2[C@@H]3CCC4=CC(=O)C=C[C@]4(C)[C@@]3(F)[C@@H](O)C[C@]2(C)[C@@]1(O)C(=O)CO [Dexamethasone, pregna-1,4-diene-3,20-dione,9-fluoro-11,17,21-trihydroxy-16-methyl-(11β,16α)]
able to significantly lower: lesion area of osteolytic metastases (1 mg/kg/day (low dose)) | lesion number of osteolytic metastases (1 mg/kg/day (low dose)) | lesion area of osteolytic metastases (2.6 mg/kg/day (high dose)) | lesion number of osteolytic metastases (2.6 mg/kg/day (high dose))
